From US20240209113A1
Results are given in words; binding and its absence hold for the method and conditions named. Some results given as binding are weak or reduced against the parent protein; the word gives no strength. Sequences can lack the tags named with a protein.

How the values were obtained:
[1] = target: human CD137 ECD-mIgG2a (human); experiment: ELISA on coated human CD137 ECD-mIgG2a, anti-human IgG-HRP; antibody concentration not given
[2] = target: human CD137 ECD-mIgG2a (human); experiment: competition ELISA on coated human CD137 ECD-mIgG2a; bound antibody detected with anti-human IgG; competitor human CD137 ligand ECD-mIgG2a

B1: BGA-5623 human IgG4 Fc fusion (Fc fusion)
chain: EVQLLESGGGLVQPGGSLRLSCAASGFTVSAEDVGWVRQAPGKGLEWVSAILDKGGSTYYAESVKGRFTISRDNAKNTLYLQMSSLRAEDTAVYYCARIVYHAGGGVTFDTRGQGTQVTVSSESKYGPPCPPCPAPEFLGGPSVFLFPPKPKDTLMISRTPEVTCVVVDVSQEDPEVQFNWYVDGVEVHNAKTKPREEQFNSTYRWSVLTVLHQDWLNGKEYKCKVSNKGLPSSIEKTISKAKGQPREPQVYTLPPSQEEMTKNQVSLTCLVKGFYPSDIAVEWESNGQPENNYKTTPPVLDSDGSFFLYSRLTVDKSRWQEGNVFSCSVMHEALHNHYTQKSLSLSLGK
[1]
  binding: binds
[2]
  binding: binds
